PubChem BioAssay AID1671190 (National Center for Advancing Translational Sciences (NCATS), 2021)
Several values for one entry are separate records, joined by “and”; a condition that tells them apart may be missing. Equal entries are not always repeated. About 6,100 (1.1%) of roughly 580,000 compounds were called active. The inconclusive results got no clear call from the source; some entries with a clear call stand among them for comparison. Calls follow the shape of the dose curve; as a rule, active = well fitted inhibition curve with a large enough effect; inconclusive = small, poorly fitted or top-dose-only effect, or another doubt; inactive = no such curve, though single readings can be large or run the other way. Where the call is inconclusive, the potency comes from a doubtful curve fit.

By UniProt entry, the sequences of proteins in these tests, tags left out. Where a name states a change or a piece, a line headed by the entry shows the natural chain unless it says otherwise.
UniProt P18054: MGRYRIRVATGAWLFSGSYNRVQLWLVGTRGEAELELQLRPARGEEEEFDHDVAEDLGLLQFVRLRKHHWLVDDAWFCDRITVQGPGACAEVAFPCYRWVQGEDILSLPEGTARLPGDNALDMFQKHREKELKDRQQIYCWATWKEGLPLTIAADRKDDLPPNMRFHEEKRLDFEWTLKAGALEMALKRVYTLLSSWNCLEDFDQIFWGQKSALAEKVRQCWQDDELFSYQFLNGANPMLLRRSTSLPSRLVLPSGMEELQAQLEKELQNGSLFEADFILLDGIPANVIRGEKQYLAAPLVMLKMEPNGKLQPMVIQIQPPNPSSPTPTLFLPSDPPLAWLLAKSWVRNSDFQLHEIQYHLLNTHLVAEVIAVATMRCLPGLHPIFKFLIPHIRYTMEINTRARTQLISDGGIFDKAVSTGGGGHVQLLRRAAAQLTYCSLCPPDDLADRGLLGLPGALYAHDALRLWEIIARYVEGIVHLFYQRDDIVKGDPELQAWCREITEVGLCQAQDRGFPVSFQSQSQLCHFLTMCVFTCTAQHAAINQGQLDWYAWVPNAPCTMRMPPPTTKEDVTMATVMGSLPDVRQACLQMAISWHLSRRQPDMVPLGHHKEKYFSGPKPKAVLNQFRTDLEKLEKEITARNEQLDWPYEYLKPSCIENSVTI

Each molecule was assayed against Polyunsaturated fatty acid lipoxygenase ALOX12 (Homo sapiens) (UniProt P18054) (assay: Primary qHTS assay for inhibitors of human arachidonate 12S-lipoxygenase (ALOX12): Round 2). Conditions: purified 12hLO, xylenol orange hydroperoxide absorbance; activity change, negative = inhibition: at 108 µM (top of the series) unless noted.
Outline: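 Purified human 12hLO at 150 nM in 25 mM Hepes, 0.01% Triton X-100, pH 7.0, preincubated 15 min at room temperature with compound. Reaction started with 40 uM arachidonic acid, 30 min at room temperature. Hydroperoxide measured by Fe-xylenol orange, 573/405 nm absorbance ratio.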
% is scaled to controls: 0 for no effect and ±100 for the full control effect; potency is read from the fitted curve at half-maximal effect.

Compound	Potency	activity change, negative = inhibition
Cc1ccc(NS(=O)(=O)c2ccc3[nH]c4c(c3c2)CCCCCC4)cc1	inconclusive: 50.1 µM [inhibitor, partial curve, poor fit]	
Cc1noc(CN2C[C@H](NC(=O)CNS(C)(=O)=O)[C@@H](C3CC3)C2)n1	inconclusive: 3.16 µM [inhibitor, full curve]	
CCCCCCCCCCOC(=O)Cn1c(COc2ccc(C)cc2)[n+](C)c2ccccc21	inconclusive: 44.7 µM [inhibitor, partial curve, poor fit]	
COc1ccc(C)cc1NC(=O)CC1CCCN(c2cnn(C)c(=O)c2)C1 (configuration not stated)	inconclusive: 2.82 µM [inhibitor, partial curve, poor fit]	
CCOC(=O)C(NC(=O)/C=C/c1c(Cl)cccc1Cl)C(=O)OCC	inconclusive: 100 µM [inhibitor, single point]	
CC1CCCC(NC(=O)c2ccc(NC(=O)CC#N)cc2)C1C (configuration not stated)		inactive: 3.45%
COCCN1C(=O)CC[C@]2(C(=O)N(C)CCc3ccncc3)CCCC[C@@H]12	inconclusive: 8.91 µM [inhibitor, full curve]	
CC(=O)Nc1cccc(NC(=O)c2ccc(C(=O)Nc3cccc(NC(C)=O)c3)nc2)c1		inactive: -14.5%
Nc1c(-c2ccccc2)c(CSc2nc3ccccc3[nH]2)nn1-c1ccc(Cl)cc1		inactive: 14%
O=c1c2c(nc3nc(Cc4ccccc4)[nH]n13)CCC2	inconclusive: 112 µM [inhibitor, single point]	
CN1CCN(C(c2ccccc2)c2ccc(Cl)cc2)CC1 (configuration not stated)	inconclusive: 35.5 µM [inhibitor, partial curve, poor fit]	
CN(Cc1ccccc1)S(=O)(=O)c1cccc(C(=O)O)c1	inconclusive: 63.1 µM [inhibitor, partial curve, poor fit]	
Cc1cccc(N2CC(C(=O)Nc3cc(Cl)ccc3-n3cncn3)CC2=O)c1C (configuration not stated)	inconclusive: 112 µM [inhibitor, single point]	
COc1cccc(NC(=O)c2ccc3c(c2)NC(C)(CNc2ccccc2)CO3)c1 (configuration not stated)		inactive: -8.99% [at 176 µM]
COP(=O)(OC)c1nc(-c2cccc([N+](=O)[O-])c2)oc1NCc1ccccc1	inconclusive: 79.4 µM [inhibitor, single point]	
CS(=O)(=O)c1ccc(F)c(NCc2ccccc2F)c1	inconclusive: 12.6 µM [inhibitor, full curve, poor fit]	
CC1CCCN(S(=O)(=O)c2ccc(N3CCCCS3(=O)=O)cc2)C1 (configuration not stated)	inconclusive: 126 µM [inhibitor, partial curve, poor fit]	
CS(=O)(=O)c1ccc2nc(NC(=O)c3ccc(=O)[nH]c3)sc2c1		inactive: 0.343%
c1ccc(OCc2cc(CC3(NC4CCC4)COC3)no2)cc1		inactive: 1.05% [at 176 µM]
CCCCn1c(N)c(N(CCOC)C(=O)c2ccc(-c3ccc(Cl)cc3)o2)c(=O)[nH]c1=O	inconclusive: 6.31 µM [inhibitor, full curve, poor fit] and inconclusive: 89.1 µM [inhibitor, single point]	
c1ccc(-c2cc(N3CCCCCC3)n[nH]2)cc1	inconclusive: 12.6 µM [inhibitor, partial curve, poor fit]	

Compound	Potency	activity change, negative = inhibition
NC(=O)c1cc[nH]c1C1CCCN(S(=O)(=O)c2cccc3cccnc23)C1 (configuration not stated)	inconclusive: 7.08 µM [inhibitor, full curve, poor fit]	
COc1cccc2sc(=NC(=O)CS(=O)(=O)c3ccc(Cl)cc3)n(C)c12	inconclusive: 70.8 µM [inhibitor, partial curve, poor fit]	
CC1(C)Cc2c(c(-c3ccccc3)nc3[nH][nH]c(=O)c23)CO1	inconclusive: 50.1 µM [inhibitor, single point]	
CO[C@@H]1CN(C)C(=O)c2ccc(NC(=O)c3ccccc3F)cc2OC[C@@H](C)N(CC2CCOCC2)C[C@@H]1C	inconclusive: 100 µM [inhibitor, single point]	
Cc1cccnc1C(c1ccc(F)cc1)N(C)C(=O)C1CCN(CCCOc2ccc(F)cc2)CC1 (configuration not stated)		inactive: -40%
COc1ccc(S(=O)(=O)NCC(=O)O)c2ccccc12		inactive: 49.1%
CC1CCCCC1NC(=O)COC(=O)c1c2c(nc3ccccc13)/C(=C\c1ccco1)CC2 (configuration not stated)	active: 15.8 µM	
CN(C)c1nc(N(C)C)n(C(=O)c2ccc(F)cc2)n1	inconclusive: 39.8 µM [inhibitor, single point]	
Cn1nccc1C(=O)OCC(=O)Nc1cccc(Cl)c1	inconclusive: 126 µM [inhibitor, single point]	
CCn1c(SCC(=O)N/N=C/C=C\c2ccco2)nc2ccccc21	inconclusive: 39.8 µM [inhibitor, partial curve]	
Cc1cccc(C(=O)NC2CCCc3ccccc32)c1C (configuration not stated)	inconclusive: 50.1 µM [inhibitor, partial curve, poor fit]	
CN(C)Cc1ccc(-c2cc(-c3ccncc3)c3cncn3c2)cc1		inactive: 3.19% [at 176 µM]
O=C1NC[C@@H](CCCCN2C[C@H](Cc3ccccc3)N(CC3CCCCC3)C(=O)C2=O)N(Cc2ccccc2)C1=O	inconclusive: 89.1 µM [inhibitor, single point]	
CC(=O)NC1(C)CCCCC1		inactive: 8.29%
CC(C)(C)n1nnnc1C(c1cccnc1)N1CCN(c2ccccc2F)CC1 (configuration not stated)		inactive: 0%
CCOC(=O)c1cc(C)n(-c2ccccc2)c1C	inconclusive: 50.1 µM [inhibitor, partial curve, poor fit]	
COC(=O)c1sc2nc(N3CCOCC3)c3c(c2c1N)CCN(C)C3	inconclusive: 79.4 µM [inhibitor, partial curve, poor fit]	
Cc1cccn2c(=O)c3cc(C(=O)NCc4ccco4)c(=N)n(CCc4ccccc4)c3nc12		inactive: -12.6%
Cc1cccc(N2CCN(C(=O)CCNS(=O)(=O)c3ccc4c(c3)oc(=O)n4C)CC2)c1C		inactive: 12.1%
S=C1NC2=C(CCCC2=C2SCCS2)C(c2ccccc2)N1 (configuration not stated)	inconclusive: 35.5 µM [inhibitor, partial curve, poor fit]	
CN1CCN(Cc2cccc(Oc3ccccc3)c2)CC1	inconclusive: 50.1 µM [inhibitor, partial curve, poor fit]	

In the list so far, 2 have an aryl thioether with sulfur outside any ring:
Compound	Potency	activity change, negative = inhibition
Nc1c(-c2ccccc2)c(CSc2nc3ccccc3[nH]2)nn1-c1ccc(Cl)cc1		inactive: 14%
CCn1c(SCC(=O)N/N=C/C=C\c2ccco2)nc2ccccc21	inconclusive: 39.8 µM [inhibitor, partial curve]	
